Data source: PubChem BioAssay AID504804 (Drosophila RNAi Screening Center, 2011)
The deposit covers about 19,000 reagents; shown is a random part of those that have a named target and a result. Over the whole deposit, 47 (0.25%) were called active. 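Signals are raw, not normalised; exact z-scores behind calls not deposited; actives needed confirmation, so some wells reaching 2 SD are inactive.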 A plus sign joins genes that one reagent is predicted to hit. No sequences are given here.

- Aim: 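dsRNAs that improve Kc cell survival under doxorubicin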 (primary screen)
- System: Drosophila Kc cells
- Reagents: long dsRNA against Drosophila genes, 0.5 µg dsRNA per well
- Timing: 96 h (48 h knock-down, then 48 h drug)
- Challenge: doxorubicin 5 µg/ml for 48 h, added 48 h after dsRNA
- Detection: 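Luminescent ATP counts per replicate, not normalised, reflecting viable cells after 48 h dsRNA knock-down followed by 48 h of 5 µg/ml doxorubicin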
- Scale: raw ATP luminescence: higher = more viable cells, protection from doxorubicin
- Call rule: 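z-score of 2 or more over plate mean in both duplicates, retained only when retests and separate dsRNAs confirm the protection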

no.	Target gene	DRSC id	SD above plate mean	raw ATP luminescence, replicate 1	raw ATP luminescence, replicate 2	Outcome
1	CG12951 (GeneID 41110)	DRSC14579		44363	55913	inactive
2	CG14657 (GeneID 40602)	DRSC12219		55497	50337	inactive
3	CG14657 (GeneID 40602)	DRSC12243		40450	30470	inactive
4	C3G (GeneID 31618)	DRSC17745		41010	53280	inactive
5	C3G (GeneID 31618)	DRSC17929		45470	56700	inactive
6	GCC185 (GeneID 41459)	DRSC15493		42107	45987	inactive
7	Eig71Ej (GeneID 39711)	DRSC11157		70003	55880	inactive
8	CG8654 (GeneID 37275)	DRSC07231		57350	56673	inactive
9	NimC4 (GeneID 34824)	DRSC01945		66820	80043	inactive
10	nullo (GeneID 31652)	DRSC18807		44340	46670	inactive
11	Ndg (GeneID 36089)	DRSC06223		81527	46270	inactive
12	rb (GeneID 31381)	DRSC18826		49800	51940	inactive
13	CG4956 (GeneID 43114)	DRSC15683		57800	63970	inactive
14	MFS9 (GeneID 42426)	DRSC15560		50733	44400	inactive
15	CG4250 (GeneID 37599)	DRSC04455		40973	68693	inactive
16	Cnot4 (GeneID 34416)	DRSC02830		35000	1.00e5	inactive
17	Cnot4 (GeneID 34416)	DRSC02831		43080	87010	inactive
18	CG9813 (GeneID 41644)	DRSC16569		49747	25507	inactive
19	CG15546 (GeneID 43659)	DRSC15084		42730	41520	inactive
20	Cpr65Ec (GeneID 38775)	DRSC11025		73150	80557	inactive
21	cav (GeneID 42881)	DRSC15995		42500	42323	inactive
22	Tmtc4 (GeneID 41867)	DRSC15702		72870	64930	inactive
23	tgy (GeneID 32896)	DRSC20045		3.90e5	3.48e5	inactive
24	Uba2 (GeneID 44496)	DRSC11311		67343	75240	inactive
25	CG16787 (GeneID 37811)	DRSC04282		53570	61690	inactive
26	gsb-n (GeneID 38004)	DRSC04021		1.02e5	1.15e5	inactive
27	gsb-n (GeneID 38004)	DRSC04693		46483	54880	inactive
28	stv (GeneID 39518)	DRSC09796		17070	20910	inactive
29	stv (GeneID 39518)	DRSC10111		54887	58723	inactive
30	FMRFa (GeneID 36030)	DRSC07428		43110	85500	inactive
31	RpS9 (GeneID 39108)	DRSC11273		25363	27117	inactive
32	CG8209 (GeneID 38888)	DRSC10970		75087	82730	inactive
33	CAH6 (GeneID 43701)	DRSC15505		62760	78130	inactive
34	Mst85C (GeneID 41089)	DRSC16746		71377	61963	inactive
35	ppk17 (GeneID 35006)	DRSC02252		48730	54077	inactive
36	Mf (GeneID 41824)	DRSC16120		1.15e5	66460	inactive
37	CG33752 (GeneID 3771860)	DRSC05351		76373	69920	inactive
38	grh (GeneID 37038)	DRSC05680		1.19e5	1.42e5	inactive
39	grh (GeneID 37038)	DRSC05683		85803	54557	inactive
40	grh (GeneID 37038)	DRSC07624		64747	67487	inactive
41	Tdh (GeneID 40268)	DRSC11788		23010	21540	inactive
42	RpL26 (GeneID 40060)	DRSC10726		49633	41480	inactive
43	Gle1 (GeneID 35849)	DRSC06485		47097	49040	inactive
44	PIG-Q (GeneID 117366)	DRSC19138		1.89e5	2.18e5	inactive
45	CG31674 (GeneID 318878)	DRSC03208	2 to 3 SD above plate mean	90450	1.10e5	active
46	CG3808 (GeneID 40074)	DRSC10377		71640	57123	inactive
47	CG18581 (GeneID 39633)	DRSC10324		61537	52267	inactive
48	CG18081 (GeneID 39725)	DRSC10294		91803	59227	inactive
49	Pdf (GeneID 43193)	DRSC16786		1.82e5	2.14e5	inactive
50	Plap (GeneID 43978)	DRSC00678		1.05e5	68117	inactive
51	Trmt6 (GeneID 33920)	DRSC03272		23823	35443	inactive
52	CG31189 (GeneID 42487)	DRSC16198		70130	47250	inactive
53	mRpS11 (GeneID 42061)	DRSC15732		60840	71440	inactive
54	CG34155 (GeneID 4379867)	DRSC13991		2.73e5	2.86e5	inactive
55	CG8757 (GeneID 39528)	DRSC11039		59473	59650	inactive
56	CG10433 (GeneID 37458)	DRSC04068		84207	49520	inactive
57	Mayo (GeneID 43678)	DRSC14300		64880	16200	inactive
58	Dera (GeneID 36358)	DRSC07207		69210	67463	inactive
59	Yeti (GeneID 7354404)	DRSC21138		1.94e5	2.06e5	inactive
60	CR11386 + CR33222	DRSC17781		36140	31390	inactive
61	Nepl11 (GeneID 40540)	DRSC12333		28580	37210	inactive
62	HisCl1 (GeneID 41426)	DRSC14945		65183	27480	inactive
63	Trxr2 (GeneID 40475)	DRSC11900		51613	52503	inactive
64	CG42335 (GeneID 42558)	DRSC14597		56210	59170	inactive
65	CG42335 (GeneID 42558)	DRSC15892		55120	63750	inactive
66	Gdap2 (GeneID 59173)	DRSC06789		34617	71110	inactive
67	Gdap2 (GeneID 59173)	DRSC06790		41660	76800	inactive
68	ND-51 (GeneID 33852)	DRSC03145		76340	48337	inactive
69	CG34135 + Nasp	DRSC16397		60670	57377	inactive
70	AgmNAT (GeneID 31512)	DRSC18072		47050	54510	inactive
71	poe (GeneID 46243)	DRSC03593		80670	45707	inactive
72	CG15115 (GeneID 37192)	DRSC06537		1.80e5	2.01e5	inactive
73	mEFTu2 (GeneID 35681)	DRSC06163		81110	51487	inactive
74	Mi-2 + Su(Tpl)	DRSC09640		67583	74750	inactive
75	drk (GeneID 36497)	DRSC07606		41773	48343	inactive
76	l(2)gd1 (GeneID 34543)	DRSC02773		95453	82320	inactive
77	eya (GeneID 33916)	DRSC03510		1.05e5	75083	inactive
78	Mcm10 (GeneID 35390)	DRSC03162		91753	54217	inactive
79	htt (GeneID 43392)	DRSC16970		61610	44630	inactive
80	AOX4 (GeneID 41897)	DRSC15337		74990	45850	inactive
81	BHD (GeneID 38793)	DRSC11017		47173	39033	inactive
82	Shawl (GeneID 5740840)	DRSC02209		43540	78837	inactive
83	Shawl (GeneID 5740840)	DRSC02748		46280	81717	inactive
84	CG14937 (GeneID 34591)	DRSC02419		37490	51073	inactive
85	CG32445 (GeneID 261603)	DRSC11678		60897	62920	inactive
86	AIF (GeneID 33390)	DRSC00696		87130	59227	inactive
87	CG12321 (GeneID 42174)	DRSC14499		34850	38297	inactive
88	Faa (GeneID 45577)	DRSC08451		49063	39843	inactive
89	CG12693 (GeneID 31375)	DRSC17882		45770	49680	inactive
90	Mnt (GeneID 31331)	DRSC18480		36580	47680	inactive
91	CG10211 (GeneID 35106)	DRSC02027		32990	99673	inactive
92	cac (GeneID 32158)	DRSC19743		3.61e5	3.69e5	inactive
93	CG10581 (GeneID 40326)	DRSC11623		62660	51083	inactive
94	Pld (GeneID 35554)	DRSC04854		67067	60100	inactive
95	Sf3a2 (GeneID 39456)	DRSC09801		28567	29110	inactive
96	CecA1 (GeneID 43596)	DRSC16603		30010	31310	inactive
97	CG7945 + yellow-k	DRSC10851		37933	37587	inactive
98	Mapmodulin (GeneID 37043)	DRSC06956		59723	64450	inactive
99	Coprox (GeneID 44701)	DRSC01996		94940	67953	inactive
100	CG18748 (GeneID 59144)	DRSC15385		52580	52673	inactive
101	Septin5 (GeneID 43990)	DRSC06843		62887	57413	inactive
102	CG11350 (GeneID 38554)	DRSC08181		84377	79650	inactive
103	CG7546 (GeneID 38844)	DRSC08885		1.49e5	1.73e5	inactive
104	CG7546 (GeneID 38844)	DRSC10871		37573	33197	inactive
105	Gnptab (GeneID 35943)	DRSC07057		44883	78207	inactive
106	Cpsf5 (GeneID 39083)	DRSC10374		37633	29850	inactive
107	Su(z)12 (GeneID 48071)	DRSC11293		60413	62023	inactive
